A short description of this assay: qHTS Assay to Find Inhibitors of Chronic Active B-Cell Receptor Signaling. The conditions noted are these: ABC-DLBCL IkBa-CBG/CBR reporter, luminescence ratio (green luciferase fused to IkBa over red control in TMD8 lymphoma cells), 4 h. The gist of the method: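 TMD8 ABC-DLBCL cells carrying doxycycline-inducible green luciferase fused to IkappaBalpha plus unfused red luciferase were exposed to compounds (up to 46 uM) for 4 hrs at 37C. Activity came from the overlap-corrected green/red luminescence ratio.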

Where [1] appears, read: measured here: CBR red luminescence, cell number.

The list shows a part of the results. Further columns of the screen follow, without active or inactive calls. Compounds called inactive in the main read-out are mostly missing here. The note in brackets gives the kind of curve behind each potency; many fits are weak.

Turning to `O=C(NC(=S)NNC(=O)c1cc2ccccc2cc1O)c1ccco1`, the AC50 (usually the midpoint of the concentration-response curve, whichever way the signal moves) under setting [1] is 7.94 µM [falling, partial curve]. On to `O=C1Nc2cc(C(=O)N3CCOCC3)ccc2S/C1=C\c1ccccc1`, for which the AC50 under setting [1] is 35.5 µM [falling, single point].

Consider `Cc1ccc(-n2ncc3c(NCc4cccnc4)ncnc32)c(C)c1`, for which, under setting [1], the AC50 is 7.31 µM [falling, partial curve]. As to `CC(=O)N1c2ccc(S(=O)(=O)NCC3CCC(C(=O)NCc4ccco4)CC3)cc2CC1C` (stereo not drawn), the AC50 under setting [1] was 0.282 µM [falling, full curve, poor fit]. Still for that read-out and setting: the value for `Cc1noc(C(=O)N(C)c2ccccc2)c1Cl` was 14.1 µM [rising, partial curve, poor fit]; that for `c1ccc(-c2noc(CSc3nnnn3-c3ccccc3)n2)cc1` was 0.126 µM [rising, full curve, poor fit]. Still for that read-out and setting: the value for `CC(=O)C(Cl)C(=O)Nc1ccccc1` (stereo not drawn) was 10 µM [falling, partial curve]; that for `COC(=O)C(=Cc1ccc(-c2ccsc2C(=O)OC)o1)C(=O)OC` was 7.94 µM [falling, partial curve]. For `CN(C)C1NC(=O)c2cc(-c3ccccc3)sc2N1` (stereo not drawn), the AC50 under setting [1] was 35.5 µM [falling, single point]. Turning to `Cc1ccc(C(=O)N/C(=C\c2ccccc2)C(=O)NCc2ccncc2)cc1`, the AC50 under setting [1] is 3.98 µM [rising, partial curve, poor fit].

In the case of `CC(C(=O)O)c1ccc(N2Cc3ccccc3C2=O)cc1` (stereo not drawn), under setting [1], the AC50 is 17.8 µM [falling, partial curve, poor fit]. In the case of `Cc1ccc(C(C(=O)NC2CCCCC2)N(C(=O)c2csnn2)C2CCCC2)o1` (stereo not drawn), the AC50 under setting [1] is 0.731 µM [falling, partial curve, poor fit].

Regarding `CC1(C)CC(=O)C2=C(C1)N1C(=C(C#N)C2c2ccc(Cl)cc2)N=C(N)c2ccccc21` (stereo not drawn), under setting [1], the AC50 is 16.4 µM [falling, single point].

In the case of `O=C(NCCC1=CCCCC1)C1CCCN(S(=O)(=O)c2cccc3cccnc23)C1` (stereo not drawn), the AC50 (measured here: IkBa-CBG green luminescence) was 12.6 µM [falling, partial curve, poor fit]. As for `O=C(Cc1cccs1)Nc1nncs1`, under setting [1], the AC50 was 18.4 µM [falling, partial curve, poor fit]. As for `c1cc2c(cc1C1=Nn3c(nnc3C3CCCCC3)SC1)OCO2`, the AC50 under setting [1] is 2.91 µM [falling, partial curve]. With `O=C(CCC(=O)N(CC(=O)NC1CCCCC1)c1ccc(F)cc1)Nc1nccs1`, the AC50 under setting [1] was 7.08 µM [falling, full curve].

Consider `COc1ccc(NC(=O)NC(C(F)(F)F)C(F)(F)F)cc1`, for which, under setting [1], the AC50 was 29.1 µM [rising, single point].

(Values after PubChem BioAssay AID493014 (National Center for Advancing Translational Sciences (NCATS), 2011).)
